We go through 1 molecule from paper PMC4357696.

In test [1] the target is T1, rad5-AA (D681A, E682A), Gal4 DNA-binding domain fusion (pGBT9-rad5-AA, p404) (budding yeast) (UniProt P32849).
T1 sequence: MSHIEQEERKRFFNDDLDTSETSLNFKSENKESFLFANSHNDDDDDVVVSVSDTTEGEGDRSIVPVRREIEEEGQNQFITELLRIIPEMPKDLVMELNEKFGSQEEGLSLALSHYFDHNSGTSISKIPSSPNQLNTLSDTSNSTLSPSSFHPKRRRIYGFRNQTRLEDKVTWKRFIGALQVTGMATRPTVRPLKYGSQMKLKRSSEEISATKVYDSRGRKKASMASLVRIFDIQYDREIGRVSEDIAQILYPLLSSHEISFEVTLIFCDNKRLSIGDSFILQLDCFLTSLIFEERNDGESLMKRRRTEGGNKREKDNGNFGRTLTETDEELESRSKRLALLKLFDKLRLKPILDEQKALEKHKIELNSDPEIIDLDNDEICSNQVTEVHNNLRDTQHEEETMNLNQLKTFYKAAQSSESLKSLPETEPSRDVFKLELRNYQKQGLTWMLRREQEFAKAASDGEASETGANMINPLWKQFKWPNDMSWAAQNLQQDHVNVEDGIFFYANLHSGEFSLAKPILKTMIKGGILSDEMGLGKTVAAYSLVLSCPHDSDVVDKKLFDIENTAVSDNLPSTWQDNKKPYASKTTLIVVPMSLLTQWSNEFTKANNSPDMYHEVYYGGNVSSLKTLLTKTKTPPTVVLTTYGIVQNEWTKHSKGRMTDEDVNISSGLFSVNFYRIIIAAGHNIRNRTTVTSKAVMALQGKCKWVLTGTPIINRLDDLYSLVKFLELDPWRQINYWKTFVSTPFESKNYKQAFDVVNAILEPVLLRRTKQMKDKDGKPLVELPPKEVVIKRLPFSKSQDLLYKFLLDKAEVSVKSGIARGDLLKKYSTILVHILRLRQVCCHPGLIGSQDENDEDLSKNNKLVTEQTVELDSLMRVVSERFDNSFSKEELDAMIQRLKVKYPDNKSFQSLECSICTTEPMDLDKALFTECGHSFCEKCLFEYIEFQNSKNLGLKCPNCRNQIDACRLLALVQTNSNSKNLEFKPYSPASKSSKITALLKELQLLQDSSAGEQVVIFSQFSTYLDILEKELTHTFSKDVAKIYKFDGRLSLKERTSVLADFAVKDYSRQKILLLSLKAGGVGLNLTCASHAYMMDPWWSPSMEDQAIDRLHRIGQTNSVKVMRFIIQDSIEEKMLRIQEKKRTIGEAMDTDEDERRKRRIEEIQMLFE
The experiment in a line: two-hybrid; yeast two-hybrid, Gal4 AD and BD fusions expressed from high-copy-number plasmids (2μ-based); also the Rad5 deletion constructs in pGBT9.

Test [2] has as its target T2, full length Rad5 (1-1169 a.a.), Gal4 DNA-binding domain fusion (pGBT9-RAD5, p347) (budding yeast) (UniProt P32849).
T2 sequence: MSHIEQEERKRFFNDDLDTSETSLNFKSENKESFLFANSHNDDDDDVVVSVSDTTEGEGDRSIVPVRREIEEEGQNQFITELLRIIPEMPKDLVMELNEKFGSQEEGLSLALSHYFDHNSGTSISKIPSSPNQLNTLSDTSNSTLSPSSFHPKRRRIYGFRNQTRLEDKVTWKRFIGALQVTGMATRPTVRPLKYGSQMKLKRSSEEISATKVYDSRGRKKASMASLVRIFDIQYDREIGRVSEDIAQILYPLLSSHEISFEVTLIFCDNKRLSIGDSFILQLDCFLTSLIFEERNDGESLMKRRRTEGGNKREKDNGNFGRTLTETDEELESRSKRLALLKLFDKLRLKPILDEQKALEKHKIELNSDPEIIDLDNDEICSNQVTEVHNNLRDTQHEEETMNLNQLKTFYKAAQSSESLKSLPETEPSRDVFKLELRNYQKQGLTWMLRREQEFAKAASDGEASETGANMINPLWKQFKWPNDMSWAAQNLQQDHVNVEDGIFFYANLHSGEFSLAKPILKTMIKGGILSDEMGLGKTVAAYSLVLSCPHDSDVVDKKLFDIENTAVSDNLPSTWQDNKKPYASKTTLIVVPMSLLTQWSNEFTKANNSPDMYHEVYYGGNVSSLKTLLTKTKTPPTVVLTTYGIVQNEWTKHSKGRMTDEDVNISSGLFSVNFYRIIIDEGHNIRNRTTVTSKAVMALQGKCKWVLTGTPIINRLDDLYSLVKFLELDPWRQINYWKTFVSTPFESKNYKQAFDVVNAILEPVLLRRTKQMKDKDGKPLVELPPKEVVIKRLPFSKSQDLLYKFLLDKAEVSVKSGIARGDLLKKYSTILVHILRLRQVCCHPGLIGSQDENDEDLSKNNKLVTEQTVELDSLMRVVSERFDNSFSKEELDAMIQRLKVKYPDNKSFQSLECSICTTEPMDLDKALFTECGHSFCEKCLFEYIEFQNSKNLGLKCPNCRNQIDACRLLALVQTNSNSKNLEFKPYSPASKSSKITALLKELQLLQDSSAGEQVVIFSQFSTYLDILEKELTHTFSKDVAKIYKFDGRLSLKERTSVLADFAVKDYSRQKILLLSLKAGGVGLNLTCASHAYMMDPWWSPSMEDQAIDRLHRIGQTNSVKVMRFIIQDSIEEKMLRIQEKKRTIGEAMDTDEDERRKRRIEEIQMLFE
The description is as above.

No constants are given. Whether binding was seen depends on the method and setting. Some entries that bind do so weakly or less than the wild type. Tags and fused reporters may be left off the sequences shown.

B1: Ubc13, two-hybrid fusion on a high-copy-number plasmid (enzyme, UniProt P52490 1-153)
chain: MASLPKRIIKETEKLVSDPVPGITAEPHDDNLRYFQVTIEGPEQSPYEDGIFELELYLPDDYPMEAPKVRFLTKIYHPNIDRLGRICLDVLKTNWSPALQIRTVLLSIQALLASPNPNDPLANDVAEDWIKNEQGAKAKAREWTKLYAKKKPE
As to B1, the binding entry in test [1] and in test [2] was “binds” each time.
